In PMC10042835, “Phytochrome B photobodies are comprised of phytochrome B and its primary and secondary interacting proteins” (Nature Communications, 2023):
Results are given in words; binding and its absence hold for the method and conditions named. Binding calls can cover weak binding; strength is not graded here. For part of these data: Tags and fused reporters may be left off the sequences shown. Values belong to the substance of their own block, whether it stands above or below them.

The chains behind the UniProt entries cited, without tags or fusion partners. Where a name states a change or a piece, a line headed by the entry shows the natural chain unless it says otherwise.
UniProt P14713: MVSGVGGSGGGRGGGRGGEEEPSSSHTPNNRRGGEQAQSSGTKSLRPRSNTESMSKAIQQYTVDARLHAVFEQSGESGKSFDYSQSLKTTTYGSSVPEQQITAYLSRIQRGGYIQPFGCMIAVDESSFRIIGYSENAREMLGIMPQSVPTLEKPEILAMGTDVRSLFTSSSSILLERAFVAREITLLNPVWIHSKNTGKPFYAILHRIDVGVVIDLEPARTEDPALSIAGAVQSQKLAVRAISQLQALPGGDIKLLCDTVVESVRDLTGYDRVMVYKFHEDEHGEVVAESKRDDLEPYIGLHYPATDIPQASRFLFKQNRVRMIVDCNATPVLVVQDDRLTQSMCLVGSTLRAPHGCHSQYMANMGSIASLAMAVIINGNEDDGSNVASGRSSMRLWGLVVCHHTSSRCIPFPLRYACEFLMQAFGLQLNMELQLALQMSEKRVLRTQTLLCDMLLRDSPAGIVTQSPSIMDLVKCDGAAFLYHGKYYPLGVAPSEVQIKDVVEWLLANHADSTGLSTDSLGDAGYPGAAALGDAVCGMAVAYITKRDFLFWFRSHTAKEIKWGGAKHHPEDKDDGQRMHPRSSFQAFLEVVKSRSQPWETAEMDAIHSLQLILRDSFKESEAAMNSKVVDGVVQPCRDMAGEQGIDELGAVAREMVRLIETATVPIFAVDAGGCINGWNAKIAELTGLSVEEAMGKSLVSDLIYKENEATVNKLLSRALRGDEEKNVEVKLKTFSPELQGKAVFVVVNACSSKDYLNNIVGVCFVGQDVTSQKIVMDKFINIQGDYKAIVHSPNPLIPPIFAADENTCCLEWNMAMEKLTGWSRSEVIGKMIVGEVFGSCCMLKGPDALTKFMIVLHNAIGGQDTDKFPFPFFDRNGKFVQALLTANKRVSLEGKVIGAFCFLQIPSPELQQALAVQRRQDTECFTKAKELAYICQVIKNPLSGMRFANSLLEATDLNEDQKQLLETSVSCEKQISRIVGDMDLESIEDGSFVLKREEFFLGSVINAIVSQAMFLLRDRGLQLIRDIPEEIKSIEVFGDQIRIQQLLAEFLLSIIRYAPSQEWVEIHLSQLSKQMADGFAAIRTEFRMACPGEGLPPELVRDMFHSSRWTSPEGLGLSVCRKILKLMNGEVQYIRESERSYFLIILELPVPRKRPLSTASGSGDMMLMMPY
UniProt Q9FIX7: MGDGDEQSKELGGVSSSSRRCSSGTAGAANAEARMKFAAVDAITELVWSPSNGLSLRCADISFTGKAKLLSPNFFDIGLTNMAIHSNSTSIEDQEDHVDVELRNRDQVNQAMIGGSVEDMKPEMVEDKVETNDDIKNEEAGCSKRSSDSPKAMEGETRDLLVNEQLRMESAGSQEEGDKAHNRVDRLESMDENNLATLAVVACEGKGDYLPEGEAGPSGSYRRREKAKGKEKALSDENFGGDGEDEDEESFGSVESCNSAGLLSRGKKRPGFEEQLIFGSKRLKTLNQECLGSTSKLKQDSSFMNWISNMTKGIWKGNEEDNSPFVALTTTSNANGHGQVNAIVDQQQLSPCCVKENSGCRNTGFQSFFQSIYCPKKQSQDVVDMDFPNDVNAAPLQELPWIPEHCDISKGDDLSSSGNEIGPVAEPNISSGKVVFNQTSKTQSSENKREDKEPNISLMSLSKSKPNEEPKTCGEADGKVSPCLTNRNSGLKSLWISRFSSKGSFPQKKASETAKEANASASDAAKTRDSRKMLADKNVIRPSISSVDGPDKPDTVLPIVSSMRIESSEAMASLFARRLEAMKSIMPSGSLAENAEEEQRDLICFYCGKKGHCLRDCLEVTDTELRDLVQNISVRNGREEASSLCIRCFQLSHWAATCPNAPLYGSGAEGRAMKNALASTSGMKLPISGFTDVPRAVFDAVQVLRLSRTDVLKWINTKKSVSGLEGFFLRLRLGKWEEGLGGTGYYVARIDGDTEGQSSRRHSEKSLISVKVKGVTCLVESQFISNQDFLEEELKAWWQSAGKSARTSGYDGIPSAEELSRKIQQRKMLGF

How the values were obtained:
[1] = target: T1, TOPLESS fused to the GAL4 DNA binding domain (pGBKT7-TPL) (Arabidopsis thaliana) (UniProt Q94AI7); experiment: two-hybrid; TPL on the GAL4 DBD (pGBKT7), PCH1 or phyBC on the GAL4 AD (pGADT7); yeast AH109; growth on TDO with 5 mM 3-AT, 30 °C, 3 days
T1 sequence: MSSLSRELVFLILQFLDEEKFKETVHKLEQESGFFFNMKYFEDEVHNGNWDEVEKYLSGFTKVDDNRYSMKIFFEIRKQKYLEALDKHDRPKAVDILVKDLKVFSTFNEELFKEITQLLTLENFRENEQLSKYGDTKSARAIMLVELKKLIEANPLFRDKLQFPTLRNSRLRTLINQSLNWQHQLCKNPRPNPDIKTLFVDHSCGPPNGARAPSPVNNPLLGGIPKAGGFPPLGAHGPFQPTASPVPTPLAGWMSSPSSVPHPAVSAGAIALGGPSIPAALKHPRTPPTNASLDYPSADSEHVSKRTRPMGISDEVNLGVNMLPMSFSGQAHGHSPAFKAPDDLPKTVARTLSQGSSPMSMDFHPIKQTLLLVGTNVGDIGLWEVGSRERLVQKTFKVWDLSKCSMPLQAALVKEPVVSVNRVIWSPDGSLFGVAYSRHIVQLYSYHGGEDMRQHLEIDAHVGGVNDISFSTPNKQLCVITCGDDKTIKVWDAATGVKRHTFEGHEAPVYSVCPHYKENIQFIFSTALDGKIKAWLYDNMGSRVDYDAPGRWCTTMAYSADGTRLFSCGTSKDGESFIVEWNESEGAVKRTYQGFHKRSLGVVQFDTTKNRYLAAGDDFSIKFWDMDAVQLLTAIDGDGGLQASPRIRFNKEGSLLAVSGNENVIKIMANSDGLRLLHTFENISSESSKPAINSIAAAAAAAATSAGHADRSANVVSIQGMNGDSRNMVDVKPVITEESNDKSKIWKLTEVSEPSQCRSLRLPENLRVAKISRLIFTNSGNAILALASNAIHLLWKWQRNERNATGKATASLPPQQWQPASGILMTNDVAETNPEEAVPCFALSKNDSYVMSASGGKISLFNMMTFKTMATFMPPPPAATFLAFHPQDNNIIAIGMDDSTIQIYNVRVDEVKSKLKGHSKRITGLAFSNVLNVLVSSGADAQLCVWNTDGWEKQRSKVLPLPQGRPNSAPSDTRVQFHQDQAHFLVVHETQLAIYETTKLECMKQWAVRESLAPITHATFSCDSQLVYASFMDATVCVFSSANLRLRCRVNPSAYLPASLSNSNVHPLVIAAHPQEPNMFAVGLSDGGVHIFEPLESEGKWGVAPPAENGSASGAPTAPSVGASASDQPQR

[2] = target: T2, GST-fused TOPLESS (GST-TPL) (Arabidopsis thaliana) (UniProt Q94AI7); experiment: pull-down; GST or GST fusions incubated with SBP-PCH1, pulled down with glutathione resin; 25 mM HEPES, 150 mM KCl, 1 mM DTT, pH 7.40, 30 min, room temperature, dark; anti-SBP and anti-GST blots; both purified
T2 sequence: T1 sequence

[3] = target: phyB-GFP (Arabidopsis thaliana) (UniProt P14713); experiment: fluorescence-activated particle sorting of phyB-GFP photobodies with LC-MS/MS; photobodies sorted by green fluorescence (Alexa Fluor 488 anti-GFP antibody) from sonicated nuclei of PHYB-GFP leaves; proteins enriched over the pre-sorted nuclear extract by more than 2σ

binding [1]: binds
Substance: PCH1 fused to the GAL4 transactivation domain (pGADT7-PCH1) (Arabidopsis thaliana)

binding [2]: binds
Substance: SBP-fused PCH1 (SBP-PCH1) (Arabidopsis thaliana)

binding [3]: binds
Substance: TANDEM ZINC-FINGER-PLUS3 (TZP) (from UniProt Q9FIX7)
